To fix the notation:
T1: recombinant human GST-WBP2 protein (WW domain-binding protein 2) (human) (UniProt Q969T9)
T1 sequence: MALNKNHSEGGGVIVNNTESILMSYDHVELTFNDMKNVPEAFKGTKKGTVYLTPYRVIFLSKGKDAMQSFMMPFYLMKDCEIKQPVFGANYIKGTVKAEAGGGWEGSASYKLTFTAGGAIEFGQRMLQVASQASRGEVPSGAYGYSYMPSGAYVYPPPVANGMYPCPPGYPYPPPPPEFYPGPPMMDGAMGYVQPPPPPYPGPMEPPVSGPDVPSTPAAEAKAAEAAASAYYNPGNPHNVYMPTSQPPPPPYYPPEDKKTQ

Protein sequences, listed by entry. Tags and fused reporters are not part of them. Lines headed by an entry give the natural chain unless they say otherwise; changes in a name come on top. Chains listed by the source or under a name are the forms on record and can include a tag or linker.
GFAP, endogenous in U251 lysate (P14136-3, form named): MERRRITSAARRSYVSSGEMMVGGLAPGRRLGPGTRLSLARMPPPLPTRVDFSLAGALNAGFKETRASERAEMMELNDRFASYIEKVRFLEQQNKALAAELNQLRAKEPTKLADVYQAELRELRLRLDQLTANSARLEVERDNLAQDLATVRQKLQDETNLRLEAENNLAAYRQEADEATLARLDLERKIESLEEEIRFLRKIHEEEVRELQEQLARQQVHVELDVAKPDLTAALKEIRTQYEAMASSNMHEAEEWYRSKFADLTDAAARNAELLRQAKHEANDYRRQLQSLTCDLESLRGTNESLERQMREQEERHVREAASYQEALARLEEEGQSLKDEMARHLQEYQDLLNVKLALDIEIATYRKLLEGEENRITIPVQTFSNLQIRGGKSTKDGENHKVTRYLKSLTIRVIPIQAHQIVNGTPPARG
ITCH, endogenous in U251 lysate (Q96J02-2, form named): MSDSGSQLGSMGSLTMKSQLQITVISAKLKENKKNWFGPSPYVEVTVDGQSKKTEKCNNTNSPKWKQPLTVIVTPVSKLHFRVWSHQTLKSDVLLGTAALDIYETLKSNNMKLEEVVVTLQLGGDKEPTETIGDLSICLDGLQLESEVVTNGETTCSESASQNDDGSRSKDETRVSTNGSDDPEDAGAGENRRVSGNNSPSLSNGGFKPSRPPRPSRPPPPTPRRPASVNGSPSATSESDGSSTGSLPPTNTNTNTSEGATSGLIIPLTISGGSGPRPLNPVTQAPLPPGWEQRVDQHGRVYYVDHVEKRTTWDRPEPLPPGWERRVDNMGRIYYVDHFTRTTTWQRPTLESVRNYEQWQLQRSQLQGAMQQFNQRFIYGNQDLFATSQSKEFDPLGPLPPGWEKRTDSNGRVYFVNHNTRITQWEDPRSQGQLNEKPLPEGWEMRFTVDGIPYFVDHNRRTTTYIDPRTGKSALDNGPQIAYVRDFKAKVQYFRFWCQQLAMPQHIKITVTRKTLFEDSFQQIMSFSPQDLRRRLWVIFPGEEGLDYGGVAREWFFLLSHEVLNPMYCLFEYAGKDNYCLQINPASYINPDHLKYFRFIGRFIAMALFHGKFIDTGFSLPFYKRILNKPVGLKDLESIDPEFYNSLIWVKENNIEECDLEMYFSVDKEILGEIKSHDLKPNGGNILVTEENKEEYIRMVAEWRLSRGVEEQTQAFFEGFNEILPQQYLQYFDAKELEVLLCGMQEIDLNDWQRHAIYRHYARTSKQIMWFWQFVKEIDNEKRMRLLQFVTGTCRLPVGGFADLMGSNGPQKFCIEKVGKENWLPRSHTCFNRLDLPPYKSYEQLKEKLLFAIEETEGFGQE
UniProt P07437: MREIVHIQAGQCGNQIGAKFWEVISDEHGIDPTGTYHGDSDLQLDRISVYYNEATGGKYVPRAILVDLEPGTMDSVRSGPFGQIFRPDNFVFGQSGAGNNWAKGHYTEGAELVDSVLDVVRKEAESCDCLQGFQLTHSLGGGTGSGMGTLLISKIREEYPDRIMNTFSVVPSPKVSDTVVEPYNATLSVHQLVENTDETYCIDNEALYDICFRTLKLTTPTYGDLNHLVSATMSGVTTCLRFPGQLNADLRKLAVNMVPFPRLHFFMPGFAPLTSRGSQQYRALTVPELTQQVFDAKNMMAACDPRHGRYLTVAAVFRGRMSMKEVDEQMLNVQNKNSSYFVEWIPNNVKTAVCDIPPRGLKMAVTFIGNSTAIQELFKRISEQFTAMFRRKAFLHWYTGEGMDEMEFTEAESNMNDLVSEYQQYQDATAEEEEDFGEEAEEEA
UniProt P50552: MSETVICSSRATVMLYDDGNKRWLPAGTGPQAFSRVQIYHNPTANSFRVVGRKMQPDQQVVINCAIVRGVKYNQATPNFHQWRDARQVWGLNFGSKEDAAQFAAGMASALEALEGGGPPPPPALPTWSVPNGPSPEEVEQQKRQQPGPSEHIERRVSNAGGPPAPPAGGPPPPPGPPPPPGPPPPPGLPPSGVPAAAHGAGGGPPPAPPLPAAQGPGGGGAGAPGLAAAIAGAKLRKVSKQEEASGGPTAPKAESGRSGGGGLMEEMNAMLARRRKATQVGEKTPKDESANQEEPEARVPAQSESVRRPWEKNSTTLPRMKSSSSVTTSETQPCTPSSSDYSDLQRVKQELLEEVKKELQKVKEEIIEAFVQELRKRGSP
UniProt P08670: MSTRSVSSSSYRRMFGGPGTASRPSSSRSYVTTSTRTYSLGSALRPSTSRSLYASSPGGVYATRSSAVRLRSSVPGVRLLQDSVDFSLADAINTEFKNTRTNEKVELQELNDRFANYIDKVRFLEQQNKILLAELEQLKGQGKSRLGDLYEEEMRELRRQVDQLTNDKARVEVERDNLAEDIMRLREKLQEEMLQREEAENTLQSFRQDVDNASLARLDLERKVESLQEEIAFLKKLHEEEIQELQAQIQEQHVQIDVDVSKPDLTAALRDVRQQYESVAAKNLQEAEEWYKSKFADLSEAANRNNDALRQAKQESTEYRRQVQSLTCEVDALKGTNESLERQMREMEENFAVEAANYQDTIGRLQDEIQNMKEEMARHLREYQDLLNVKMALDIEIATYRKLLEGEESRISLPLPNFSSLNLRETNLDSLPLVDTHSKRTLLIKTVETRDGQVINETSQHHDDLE
neural precursor cell expressed developmentally down-regulated protein 4 (NEDD4), endogenous in U251 lysate (P46934-4, form named): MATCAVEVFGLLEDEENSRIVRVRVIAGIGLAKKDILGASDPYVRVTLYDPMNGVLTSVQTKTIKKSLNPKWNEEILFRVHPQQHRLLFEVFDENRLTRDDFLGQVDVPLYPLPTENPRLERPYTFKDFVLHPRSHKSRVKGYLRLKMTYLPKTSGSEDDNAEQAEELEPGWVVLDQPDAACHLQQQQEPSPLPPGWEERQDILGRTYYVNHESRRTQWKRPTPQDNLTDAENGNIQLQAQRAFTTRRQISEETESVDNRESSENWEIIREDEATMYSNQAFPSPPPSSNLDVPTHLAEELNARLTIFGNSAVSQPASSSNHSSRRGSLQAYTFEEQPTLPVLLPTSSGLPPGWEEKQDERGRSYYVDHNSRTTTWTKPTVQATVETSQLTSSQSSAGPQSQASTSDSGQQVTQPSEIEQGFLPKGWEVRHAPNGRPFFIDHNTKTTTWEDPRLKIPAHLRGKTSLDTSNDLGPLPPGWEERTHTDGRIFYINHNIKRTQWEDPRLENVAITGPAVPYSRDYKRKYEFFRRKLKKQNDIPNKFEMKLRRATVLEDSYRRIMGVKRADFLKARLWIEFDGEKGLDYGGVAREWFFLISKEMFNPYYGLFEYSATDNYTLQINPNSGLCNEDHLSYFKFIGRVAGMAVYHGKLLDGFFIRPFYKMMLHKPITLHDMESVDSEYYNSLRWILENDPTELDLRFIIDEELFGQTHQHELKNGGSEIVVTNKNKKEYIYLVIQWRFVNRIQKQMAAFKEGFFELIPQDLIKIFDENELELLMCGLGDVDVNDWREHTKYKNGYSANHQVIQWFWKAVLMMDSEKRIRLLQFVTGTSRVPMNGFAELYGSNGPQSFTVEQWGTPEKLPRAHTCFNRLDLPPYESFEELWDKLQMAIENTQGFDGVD
UniProt P06733: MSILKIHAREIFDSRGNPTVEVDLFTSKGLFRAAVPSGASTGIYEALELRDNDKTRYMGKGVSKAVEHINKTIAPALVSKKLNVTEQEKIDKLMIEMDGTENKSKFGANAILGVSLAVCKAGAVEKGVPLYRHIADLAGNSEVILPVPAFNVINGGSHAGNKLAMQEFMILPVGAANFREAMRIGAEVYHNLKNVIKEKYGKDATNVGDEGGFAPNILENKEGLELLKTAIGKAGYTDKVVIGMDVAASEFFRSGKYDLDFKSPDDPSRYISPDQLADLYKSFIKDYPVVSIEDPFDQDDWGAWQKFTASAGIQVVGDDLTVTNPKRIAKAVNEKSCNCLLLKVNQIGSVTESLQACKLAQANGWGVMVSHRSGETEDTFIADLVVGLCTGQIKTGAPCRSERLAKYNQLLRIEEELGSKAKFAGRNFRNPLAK

B1: Homer protein homolog 3 (Homer3), endogenous in U251 lysate (protein, UniProt Q9NSC5 1-361)
chain: MSTAREQPIFSTRAHVFQIDPATKRNWIPAGKHALTVSYFYDATRNVYRIISIGGAKAIINSTVTPNMTFTKTSQKFGQWADSRANTVYGLGFASEQHLTQFAEKFQEVKEAARLAREKSQDGGELTSPALGLASHQVPPSPLVSANGPGEEKLFRSQSADAPGPTERERLKKMLSEGSVGEVQWEAEFFALQDSNNKLAGALREANAAAAQWRQQLEAQRAEAERLRQRVAELEAQAASEVTPTGEKEGLGQGQSLEQLEALVQTKDQEIQTLKSQTGGPREALEAAEREETQQKVQDLETRNAELEHQLRAMERSLEEARAERERARAEVGRAAQLLDVSLFELSELREGLARLAEAAP

These are yes or no findings as the source states them, for the method shown. Binding seen in cells or lysates may run through a third protein. A yes stands for co-enrichment or nearness to the bait. Other partners may have been found. Where a sequence is shown, tags or fusion partners need not be part of it.

The target of this experiment is T1, recombinant human GST-WBP2 protein (WW domain-binding protein 2) (human). Briefly: affinity purification with mass spectrometry; GST-WBP2 immobilized on glutathione resin, incubated with U251 lysates (30 mg, overnight, 4 °C), washed three times with lysis buffer; SDS-PAGE, trypsin digestion, LC-MS/MS; GST alone as negative control; only the target purified.
On to “GFAP, endogenous in U251 lysate (from UniProt P14136-3 1-431)”, for which the binding entry is listed as “binds”.

“ITCH, endogenous in U251 lysate (from UniProt Q96J02-2 1-862) (enzyme)”: the binding result is on record as “binds”.

For “Tubulinβ, endogenous in U251 lysate (from UniProt P07437 1-444)”, the binding entry is recorded as “binds”.

Take “VASP, endogenous in U251 lysate (from UniProt P50552 1-380)”: the binding entry is “binds”.

“VIM, endogenous in U251 lysate (from UniProt P08670 1-466)”: the binding result was “binds”.

Consider “neural precursor cell expressed developmentally down-regulated protein 4 (NEDD4), endogenous in U251 lysate (from UniProt P46934-4 1-900) (enzyme)”, for which the binding result is “binds”.

Regarding “α-enolase (ENO1), endogenous in U251 lysate (from UniProt P06733 1-434) (enzyme)”, the binding result was “binds”.

Take B1: the binding entry is on record as “binds”.

For the origin of these results see article PMC5832848.
